This is an account of results in the supplement of paper PMC7125110.

To fix the notation:
B1: glmS ribozyme (parent)
chain: AUAAAAGCGCCAGAACUACAGAAAUGUAGUUGACGAGGAGGAGGUUUAUCGAAUUUUCGGCGGAUGCCUCCAAA

± gives the standard error. Many entries were measured with a wide error. Bounds are passed on as bounds.

The variants in one series derive from B1. The experiment in a line: kcat; higher = faster cleavage; RNA array. As to conditions: with glucosamine-6-phosphate. A digest of the protocol: (§1)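 On sequenced MiSeq chips, barcoded ribozyme variants were made in situ by E. coli RNA polymerase and followed at 37 °C through a hybridised Cy3 probe. Glucosamine-6-phosphate was flowed in at 40 μM to 10 mM in HEPES/KCl/Mg(OAc)2 buffer. Exponential fits to normalised per-tile medians gave kobs, and weighted Michaelis–Menten fits gave kcat and KM.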
As a reminder, the kcat is the number of substrate molecules converted per active site and unit of time at saturation. On to AUAAAAGCGCCAGAACUACAGAAAUGUAUUUGACGAGGAGGAGGUUUAUCGACUUUUCGGCGGAUGCCUCCAAA [G29U A53C], for which the kcat was determined as 0.0016 ± 0.0014 s⁻¹.
With AUAAAAGCGCCAGAACUACAGAAAUGUAGAUGACGAGGAGGAGGUUUAUCGAAUUUUCGGCGGUUGCCUCCAAA [U30A A64U], the kcat came to 1.3e-05 ± 1e-05 s⁻¹.
Turning to AUAAAAGCGCCAGAACUACAGAAAUGUAUUUAACGAGGAGGAGGUUUAUCGAAUUUUCGGCGGAUGCCUCCAAA [G29U G32A], the kcat is 0.00151 ± 0.00013 s⁻¹.
For AUAAAAGCGCCAGAACUACAGAAAUGUAGAUGACGUGGAGGAGGUUUAUCGAAUUUUCGGCGGAUGCCUGCAAA [U30A A36U C70G], the kcat came to 5.43e-05 ± 2.9e-05 s⁻¹.
As for AUAAAAGCGCCAGAACUACAGAAAUGUAGUAGACGAGGAGGAGGUUUAUGGAAUUUUCGGCGGAUGCCUCCAAA [U31A C50G], the kcat came out at 4.08e-05 ± 3.7e-05 s⁻¹.
Consider AUAAAAGCGCCAGAACUACAGAAAUGUAGCUGACGAGGAGGAGGUUUAUCGAAUUUUGGGCGGAUGCAUCCAAA [U30C C58G C68A], for which the kcat was determined as 5.09e-05 ± 2.1e-05 s⁻¹.
Consider AUAAAAGCGCCAGAACUACAGAAAUGUAGAUGACGAGGAGGGGGUUUAUCGAAUUUUCGGCGGAUGCCUCCAAA [U30A A42G], for which the kcat was 0.00329 ± 0.0022 s⁻¹.
Same read-out and setting: the figure for AUAAAAGCGCCAGAACUACAGAAAUGUAGAUCACGAGGAGGAGGUUUAUCGAAUUUUCGGCGGAUGCCUCCAAA [U30A G32C] is 0.00103 ± 0.00059 s⁻¹; for AUAAAAGCGCCAGAACUACAGAAAUGUAGUCGACGAGGAGGAGAUUUAUCGAAUUUUCGGCGGAUGCCUCCAAA [U31C G44A] it is 3e-05 ± 1.6e-05 s⁻¹.
Take AUAAAAGCGCCAGAACUACAGAAAUGUAGCUGACGAGGAGGAGGUUUAUCGAAUUUUCGGCGGGUGCCUCCAAA [U30C A64G]: the kcat was determined as 0.000351 ± 3.3e-05 s⁻¹.
On to AUAAAAGCGCCAGAACUACAGAAAUGUAGUUAACGAGGAGGAGGUUUAUCGAAAUUUCGGCGGAUGCCUCCAAA [G32A U54A], for which the kcat was 0.00386 ± 0.001 s⁻¹.
Regarding AUAAAAGCGCCAGAACUACAGAAAUGUAGUGGACGAGUAGGAGGUUUAUCGAGUUUUCGGCGGAUGCAUCAAAA [U31G G38U A53G C68A C71A], the kcat came out at 4.21e-05 ± 3.9e-05 s⁻¹.
On the same count and under the same terms, the figure for AUAAAAGCGCCAGAACUACAGAAAUGUAGCUGACGAGGAGGAGGUUUAUCAAAUUUUCGGCGGAUGCCUCCAAA [U30C G51A] is 1.44e-05 ± 8.5e-06 s⁻¹; for AUAAAAGCGCCAGAACUACAGAAAUGUAGUAGACGAGGAGGAGGUUUAUCGAAUUUUCGUCGGAUGCCUCCAAA [U31A G60U] it is under 1e-05 s⁻¹; for AUAAAAGCGCCAGAACUACAGAAAUGUAGUCGACGAGGAGGAGGUUUAUCGAAUUUUUGGCGGAUGCCUCCAAA [U31C C58U] it is 2.26e-05 ± 7.2e-06 s⁻¹.
Still for that read-out and setting: as for AUAAAAGCGCCAGAACUACAGAAAUGUAGGUGACGAGGAGGAGGUUUAUCGAAUUUUCGGCGGAUGCCUCGAAA [U30G C71G], the figure is 0.000621 ± 0.00036 s⁻¹; as for AUAAAAGCGCCAGAACUACAGAAAUGUAGUAGACGAGGAGGAGGUUUAUCGAAUUAUCGGCGGAUGCCUCCAAA [U31A U56A], 0.0044 ± 0.0036 s⁻¹; as for AUAAAAGCGCCAGAACUACAGAAAUGUAUUUGACGAGGAGGAGGUUUAUCGAAUUAUCGGCGGAUGCCUCCAAA [G29U U56A], 0.00639 ± 0.0048 s⁻¹.
Take AUAAAAGCGCCAGAACUACAGAAAUGUAGUGGACGAGGAGGAGGUUUAUCGAAUUUUCGGCGGAGGCCUCCAAA [U31G U65G]: the kcat is 0.00259 ± 0.00018 s⁻¹.

The variants in another series derive from B1. The experiment in a line: KM; higher = weaker cofactor use; RNA array. As to conditions: with glucosamine-6-phosphate. The method in brief: as §1
The term KM denotes the concentration of substrate that gives half-maximal velocity. As for AUAAAAGCGCCAGAACUACAGAAAUGUAUUUAACGAGGAGGAGGUUUAUCGAAUUUUCGGCGGAUGCCUCCAAA [G29U G32A], the KM amounted to 2.21 ± 0.35 mM.
Regarding AUAAAAGCGCCAGAACUACAGAAAUGUAGAUCACGAGGAGGAGGUUUAUCGAAUUUUCGGCGGAUGCCUCCAAA [U30A G32C], the KM came to 40.4 ± 28 mM.
Still for that read-out and setting: the figure for AUAAAAGCGCCAGAACUACAGAAAUGUAGCUGACGAGGAGGAGGUUUAUCGAAUUUUCGGCGGGUGCCUCCAAA [U30C A64G] is 1.1 ± 0.2 mM; for AUAAAAGCGCCAGAACUACAGAAAUGUAGUUAACGAGGAGGAGGUUUAUCGAAAUUUCGGCGGAUGCCUCCAAA [G32A U54A] it is 3.52 ± 1.3 mM.
Take AUAAAAGCGCCAGAACUACAGAAAUGUAGGUGACGAGGAGGAGGUUUAUCGAAUUUUCGGCGGAUGCCUCGAAA [U30G C71G]: the KM was determined as 4.22 ± 3.9 mM.
For AUAAAAGCGCCAGAACUACAGAAAUGUAUUUGACGAGGAGGAGGUUUAUCGAAUUAUCGGCGGAUGCCUCCAAA [G29U U56A], the KM was determined as 12.8 ± 12 mM.
Take AUAAAAGCGCCAGAACUACAGAAAUGUAGUGGACGAGGAGGAGGUUUAUCGAAUUUUCGGCGGAGGCCUCCAAA [U31G U65G]: the KM was determined as 4.14 ± 0.44 mM.

The variants in a further series derive from B1. The experiment in a line: self-cleavage kobs at 40 uM GlcN6P; higher = faster cleavage; RNA array. As to conditions: with glucosamine-6-phosphate. A digest of the protocol:
as §1
As for AUAAAAGCGCCAGAACUACAGAAAUGUAGUAGACGAGGAGGAGGUUUAUGGAAUUUUCGGCGGAUGCCUCCAAA [U31A C50G], the “self-cleavage kobs at 40 uM GlcN6P” value turned out to be 2.25e-05 ± 1.8e-05 s⁻¹.
Take AUAAAAGCGCCAGAACUACAGAAAUGUAGCUGACGAGGAGGAGGUUUAUCGAAUUUUGGGCGGAUGCAUCCAAA [U30C C58G C68A]: the “self-cleavage kobs at 40 uM GlcN6P” value was determined as 2.4e-05 ± 2.3e-05 s⁻¹.
For AUAAAAGCGCCAGAACUACAGAAAUGUAGUGGACGAGUAGGAGGUUUAUCGAGUUUUCGGCGGAUGCAUCAAAA [U31G G38U A53G C68A C71A], the “self-cleavage kobs at 40 uM GlcN6P” value turned out to be 4.23e-05 ± 2.4e-05 s⁻¹.
Turning to AUAAAAGCGCCAGAACUACAGAAAUGUAGGUGACGAGGAGGAGGUUUAUCGAAUUUUCGGCGGAUGCCUCGAAA [U30G C71G], the “self-cleavage kobs at 40 uM GlcN6P” value was found to be 2.56e-05 ± 2.2e-05 s⁻¹.
The same measure, in the same setting: the figure for AUAAAAGCGCCAGAACUACAGAAAUGUAGUGGACGAGGAGGAGGUUUAUCGAAUUUUCGGCGGAGGCCUCCAAA [U31G U65G] is 2.01e-05 ± 1.2e-05 s⁻¹.

In the next series the parent is B1. As to the kind of experiment: self-cleavage kobs at 10000 uM GlcN6P; higher = faster cleavage; RNA array. As to conditions: with glucosamine-6-phosphate. The method in brief: as §1
Consider AUAAAAGCGCCAGAACUACAGAAAUGUAGUAGACGAGGAGGAGGUUUAUGGAAUUUUCGGCGGAUGCCUCCAAA [U31A C50G], for which the “self-cleavage kobs at 10000 uM GlcN6P” value turned out to be 1.7e-05 ± 1.4e-05 s⁻¹.
With AUAAAAGCGCCAGAACUACAGAAAUGUAGCUGACGAGGAGGAGGUUUAUCGAAUUUUGGGCGGAUGCAUCCAAA [U30C C58G C68A], the “self-cleavage kobs at 10000 uM GlcN6P” value came to 2.17e-05 ± 1.9e-05 s⁻¹.
With AUAAAAGCGCCAGAACUACAGAAAUGUAGUCGACGAGGAGGAGAUUUAUCGAAUUUUCGGCGGAUGCCUCCAAA [U31C G44A], the “self-cleavage kobs at 10000 uM GlcN6P” value is 2.09e-05 ± 1.3e-05 s⁻¹.
Turning to AUAAAAGCGCCAGAACUACAGAAAUGUAGUGGACGAGUAGGAGGUUUAUCGAGUUUUCGGCGGAUGCAUCAAAA [U31G G38U A53G C68A C71A], the “self-cleavage kobs at 10000 uM GlcN6P” value is 2.69e-05 ± 2.1e-05 s⁻¹.
AUAAAAGCGCCAGAACUACAGAAAUGUAGUCGACGAGGAGGAGGUUUAUCGAAUUUUUGGCGGAUGCCUCCAAA [U31C C58U]: the “self-cleavage kobs at 10000 uM GlcN6P” value is 1.69e-05 ± 1.6e-05 s⁻¹.

In the next series the parent is B1. The experiment in a line: self-cleavage kobs at 2500 uM GlcN6P; higher = faster cleavage; RNA array. As to conditions: with glucosamine-6-phosphate. The method in brief:
as §1
For AUAAAAGCGCCAGAACUACAGAAAUGUAGAUGACGAGGAGGGGGUUUAUCGAAUUUUCGGCGGAUGCCUCCAAA [U30A A42G], the “self-cleavage kobs at 2500 uM GlcN6P” value was 0.00284 ± 0.0015 s⁻¹.
AUAAAAGCGCCAGAACUACAGAAAUGUAGUGGACGAGUAGGAGGUUUAUCGAGUUUUCGGCGGAUGCAUCAAAA [U31G G38U A53G C68A C71A]: the “self-cleavage kobs at 2500 uM GlcN6P” value stood at 0.000448 ± 0.00029 s⁻¹.
